Molecules are shown by their SMILES. Some entries of the source have several records that differ or are many. This list holds those alone. An entry can have further records. Results that share an entry do not match, cause unknown; some may be repeats, others may stem from another dose, organism or construct than stated.

The series can be described thus: Mouse pharmacokinetics, plasma BrP-LPA by HPLC-MS/MS. The note with it: 10 mg/kg i.p., female mice. How it is done: BrP-LPA, LPA species (C14:0, C16:0, C18:0, C18:1 and C20:4) and LPC species (C14:0, C16:0, C18:0, C18:1 and C20:0) were measured in plasma with HPLC-ESI/MS/MS using RSLCnano system (Ultimate 3000) coupled in-line with an LTQ Orbitrap XL mass spectrometer (Thermo Scientific, Waltham, MA, USA). BrP-LPA and lipid (LPA, LPC) extraction from plasma was performed on ice according to the Folch method with minor modifications. Plasma samples (50 ul) were mixed with 950 ul PBS prior to extraction and spiked with the internal standard mix (17:1 LPA/LPC). Samples were extracted under neutral conditions with 4 ml of ice-cold CHCl3/CH3OH (2/1, v/v) followed by 2 ml of PBS-saturated ice-cold CHCl3/CH3OH (2/1, v/v). Each extraction step was followed by a 60 s vortex and a 1 min centrifugation step in a bench-top clinical centrifuge in a cold room at 4°C at 3,000 rpm. The lower chloroform organic phases from both neutral extraction steps were pooled and kept for LPC measurement. […] The precursor ion mass was used for the quantification while lipid identity was confirmed by precursor ion fragmentation using collision induced dissociation (CID). […]
BrP-LPA was administered intraperitoneally (IP) at 10 mg/kg in water to 6–8 week old female mice. […] Plasma samples were then analysed for plasma ATX activity and BrP-LPA/LPA/LPC levels with the TOOS activity assay and HPLC-MS/MS respectively. […]

Consider `CCCCCCCCCCCCCCCC(=O)OC[C@@H](O)CC(Br)P(=O)(O)O` (stereo partly drawn) [BrP-LPA, 1-bromo-3(S)-hydroxy-4-(palmitoyloxy)butyl-phosphonate], for which the tmax result is “one and 1 h”.

These data come from publication PMC3726599, “A Metabolically-Stabilized Phosphonate Analog of Lysophosphatidic Acid Attenuates Collagen-Induced Arthritis” (PLoS ONE, 2013).
